Positions count from the first letter of the chain named. Read-outs that look alike come from different tables or passages of the source. No constants are given. Whether binding was seen depends on the method and setting. Binding seen in cells or lysates may run through a third protein. Here binding means that the protein was enriched with, or labelled near, the bait; the list need not be complete.
T1: BirA*–MYO1F tail (human) (UniProt O00160)
T1 sequence: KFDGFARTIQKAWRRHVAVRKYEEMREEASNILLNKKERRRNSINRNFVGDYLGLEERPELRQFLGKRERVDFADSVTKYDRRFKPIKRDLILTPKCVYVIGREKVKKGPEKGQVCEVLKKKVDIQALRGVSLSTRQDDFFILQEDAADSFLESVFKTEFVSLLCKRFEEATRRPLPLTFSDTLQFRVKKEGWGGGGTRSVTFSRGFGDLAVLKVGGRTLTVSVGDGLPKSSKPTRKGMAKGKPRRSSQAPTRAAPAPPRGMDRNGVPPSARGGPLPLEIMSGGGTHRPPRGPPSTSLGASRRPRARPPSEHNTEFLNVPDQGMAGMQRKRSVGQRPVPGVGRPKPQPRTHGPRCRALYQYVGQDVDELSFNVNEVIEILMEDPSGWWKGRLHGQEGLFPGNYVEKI

By UniProt entry, the sequences of proteins in these tests, tags left out.
UniProt P42768: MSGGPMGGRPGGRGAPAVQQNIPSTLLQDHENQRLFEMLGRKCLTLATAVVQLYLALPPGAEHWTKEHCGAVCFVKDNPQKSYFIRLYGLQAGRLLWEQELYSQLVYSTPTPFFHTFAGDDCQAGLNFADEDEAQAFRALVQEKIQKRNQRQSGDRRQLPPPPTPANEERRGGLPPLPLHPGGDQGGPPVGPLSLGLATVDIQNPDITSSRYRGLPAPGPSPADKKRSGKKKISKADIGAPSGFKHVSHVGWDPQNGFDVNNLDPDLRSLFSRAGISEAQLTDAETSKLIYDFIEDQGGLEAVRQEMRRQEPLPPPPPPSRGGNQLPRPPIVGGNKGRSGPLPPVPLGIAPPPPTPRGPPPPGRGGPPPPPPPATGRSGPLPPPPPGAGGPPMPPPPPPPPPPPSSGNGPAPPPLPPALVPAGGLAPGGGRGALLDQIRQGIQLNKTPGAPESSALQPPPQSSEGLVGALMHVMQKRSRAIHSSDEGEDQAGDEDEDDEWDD
UniProt O15117: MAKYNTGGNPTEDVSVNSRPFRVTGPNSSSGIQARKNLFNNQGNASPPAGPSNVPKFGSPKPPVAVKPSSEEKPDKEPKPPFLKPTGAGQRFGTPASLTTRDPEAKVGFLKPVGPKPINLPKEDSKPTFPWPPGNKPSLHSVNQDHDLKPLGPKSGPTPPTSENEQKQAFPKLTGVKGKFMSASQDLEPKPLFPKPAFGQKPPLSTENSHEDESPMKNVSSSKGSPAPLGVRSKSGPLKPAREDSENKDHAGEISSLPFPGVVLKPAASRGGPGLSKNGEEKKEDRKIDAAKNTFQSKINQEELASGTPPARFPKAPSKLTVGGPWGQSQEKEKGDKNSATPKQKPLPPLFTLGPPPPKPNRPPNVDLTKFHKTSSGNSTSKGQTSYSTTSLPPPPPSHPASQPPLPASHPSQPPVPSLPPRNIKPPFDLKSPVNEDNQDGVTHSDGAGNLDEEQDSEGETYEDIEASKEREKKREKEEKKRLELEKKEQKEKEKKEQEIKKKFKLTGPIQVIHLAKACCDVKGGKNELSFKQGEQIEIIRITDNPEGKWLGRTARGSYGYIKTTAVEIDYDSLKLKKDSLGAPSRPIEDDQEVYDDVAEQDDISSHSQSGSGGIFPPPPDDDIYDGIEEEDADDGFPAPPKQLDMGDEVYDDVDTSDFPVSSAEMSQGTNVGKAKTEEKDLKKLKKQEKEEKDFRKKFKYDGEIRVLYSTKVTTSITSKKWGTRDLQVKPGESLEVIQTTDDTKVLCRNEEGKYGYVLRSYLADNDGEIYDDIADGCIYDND

T2: BirA*–MYO1F tail PHmut (human) (UniProt O00160)
T2 sequence: T1 sequence with K79A, R89A

B1: SH3 domain-binding protein 2 (SH3BP2) (protein, UniProt P78314 1-561)
chain: MAAEEMHWPVPMKAIGAQNLLTMPGGVAKAGYLHKKGGTQLQLLKWPLRFVIIHKRCVYYFKSSTSASPQGAFSLSGYNRVMRAAEETTSNNVFPFKIIHISKKHRTWFFSASSEEERKSWMALLRREIGHFHEKKDLPLDTSDSSSDTDSFYGAVERPVDISLSPYPTDNEDYEHDDEDDSYLEPDSPEPGRLEDALMHPPAYPPPPVPTPRKPAFSDMPRAHSFTSKGPGPLLPPPPPKHGLPDVGLAAEDSKRDPLCPRRAEPCPRVPATPRRMSDPPLSTMPTAPGLRKPPCFRESASPSPEPWTPGHGACSTSSAAIMATATSRNCDKLKSFHLSPRGPPTSEPPPVPANKPKFLKIAEEDPPREAAMPGLFVPPVAPRPPALKLPVPEAMARPAVLPRPEKPQLPHLQRSPPDGQSFRSFSFEKPRQPSQADTGGDDSDEDYEKVPLPNSVFVNTTESCEVERLFKATSPRGEPQDGLYCIRNSSTKSGKVLVVWDETSNKVRNYRIFEKDSKFYLEGEVLFVSVGSMVEHYHTHVLPSHQSLLLRHPYGYTGPR
B2: NUMB (protein, UniProt P49757 1-651)
chain: MNKLRQSFRRKKDVYVPEASRPHQWQTDEEGVRTGKCSFPVKYLGHVEVDESRGMHICEDAVKRLKAERKFFKGFFGKTGKKAVKAVLWVSADGLRVVDEKTKDLIVDQTIEKVSFCAPDRNFDRAFSYICRDGTTRRWICHCFMAVKDTGERLSHAVGCAFAACLERKQKREKECGVTATFDASRTTFTREGSFRVTTATEQAEREEIMKQMQDAKKAETDKIVVGSSVAPGNTAPSPSSPTSPTSDATTSLEMNNPHAIPRRHAPIEQLARQGSFRGFPALSQKMSPFKRQLSLRINELPSTMQRKTDFPIKNAVPEVEGEAESISSLCSQITNAFSTPEDPFSSAPMTKPVTVVAPQSPTFQANGTDSAFHVLAKPAHTALAPVAMPVRETNPWAHAPDAANKEIAATCSGTEWGQSSGAASPGLFQAGHRRTPSEADRWLEEVSKSVRAQQPQASAAPLQPVLQPPPPTAISQPASPFQGNAFLTSQPVPVGVVPALQPAFVPAQSYPVANGMPYPAPNVPVVGITPSQMVANVFGTAGHPQAAHPHQSPSLVRQQTFPHYEASSATTSPFFKPPAQHLNGSAAFNGVDDGRLASADRHTEVPTGTCPVDPFEAQWAALENKSKQRTNPSPTNPFSSDLQKTFEIEL
B3: GOLGA8R (protein, UniProt I6L899 1-631)
chain: MAEETQHNKLAAAKKKLKEYWQKNRPRVPAGVNRNRKTNGSIPETATSGGCQPPGDSATGFHREGPTSSATLKDLESPCQERAVVLDSTSVKISRLKNTIKSLKQQKKQVEHQLEEEKKANNERQKAERVLEVQIQTLIIQKEELNTDLYHMERSLRYFEEESKDLAVRLQHSLQCKGELERALSAVIATEKKKANQLSSCSKAHTEWELEQSLQDQALLKAQLTQLKESFQQLQLERDECAEHIEGERARWHQRMSKMSQEICTLKKEKQDMRWVEQLEWSLSKLKNQTAEPLPPEPPAVPSEVELQHLRKELERVAGELQSQVKNNQHISLLNRRQEERIREQEERLRKQEERLQEQHEKLRQLAKPQSVFEELNNENKSTLQLEQQVKELQEKLGEEHLEVASQQNQQLTAQLSLMALPGEGHGGEHLDSEGEEAPQPMPSVPEDPESREAMSSFMDHLKEKADLSELLKKQELRFIQYWQERCHQKIHHLLSEPGGRAKDAALGGGHHQAGAQGGDEGEAAGAAADGIAAYSNYNNGHRKFLAAAHNSADEPGPGAPAPQELGAADKHGDLREVTLTSSAQGEAREDPLLDKPTAQPIVQDHQEHPGLGSNCCVPLFCWAWLPRRRR
B4: GPR124 (protein, UniProt Q96PE1 34-1338)
chain: APGCPLSIRSCKCSGERPKGLSGGVPGPARRRVVCSGGDLPEPPEPGLLPNGTVTLLLSNNKITGLRNGSFLGLSLLEKLDLRNNIISTVQPGAFLGLGELKRLDLSNNRIGCLTSETFQGLPRLLRLNISGNIFSSLQPGVFDELPALKVVDLGTEFLTCDCHLRWLLPWAQNRSLQLSEHTLCAYPSALHAQALGSLQEAQLCCEGALELHTHHLIPSLRQVVFQGDRLPFQCSASYLGNDTRIRWYHNRAPVEGDEQAGILLAESLIHDCTFITSELTLSHIGVWASGEWECTVSMAQGNASKKVEIVVLETSASYCPAERVANNRGDFRWPRTLAGITAYQSCLQYPFTSVPLGGGAPGTRASRRCDRAGRWEPGDYSHCLYTNDITRVLYTFVLMPINASNALTLAHQLRVYTAEAASFSDMMDVVYVAQMIQKFLGYVDQIKELVEVMVDMASNLMLVDEHLLWLAQREDKACSRIVGALERIGGAALSPHAQHISVNARNVALEAYLIKPHSYVGLTCTAFQRREGGVPGTRPGSPGQNPPPEPEPPADQQLRFRCTTGRPNVSLSSFHIKNSVALASIQLPPSLFSSLPAALAPPVPPDCTLQLLVFRNGRLFHSHSNTSRPGAAGPGKRRGVATPVIFAGTSGCGVGNLTEPVAVSLRHWAEGAEPVAAWWSQEGPGEAGGWTSEGCQLRSSQPNVSALHCQHLGNVAVLMELSAFPREVGGAGAGLHPVVYPCTALLLLCLFATIITYILNHSSIRVSRKGWHMLLNLCFHIAMTSAVFAGGITLTNYQMVCQAVGITLHYSSLSTLLWMGVKARVLHKELTWRAPPPQEGDPALPTPSPMLRFYLIAGGIPLIICGITAAVNIHNYRDHSPYCWLVWRPSLGAFYIPVALILLITWIYFLCAGLRLRGPLAQNPKAGNSRASLEAGEELRGSTRLRGSGPLLSDSGSLLATGSARVGTPGPPEDGDSLYSPGVQLGALVTTHFLYLAMWACGALAVSQRWLPRVVCSCLYGVAASALGLFVFTHHCARRRDVRASWRACCPPASPAAPHAPPRALPAAAEDGSPVFGEGPPSLKSSPSGSSGHPLALGPCKLTNLQLAQSQVCEAGAAAGGEGEPEPAGTRGNLAHRHPNNVHHGRRAHKSRAKGHRAGEACGKNRLKALRGGAAGALELLSSESGSLHNSPTDSYLGSSRNSPGAGLQLEGEPMLTPSEGSDTSAAPLSEAGRAGQRRSASRDSLKGGGALEKESHRRSYPLNAASLNGAPKGGKYDDVTLMGAEVASGGCMKTGLWKSETTV
B5: formin-binding protein 1 (FNBP1) (protein, UniProt Q96RU3 1-617)
chain: MSWGTELWDQFDNLEKHTQWGIDILEKYIKFVKERTEIELSYAKQLRNLSKKYQPKKNSKEEEEYKYTSCKAFISNLNEMNDYAGQHEVISENMASQIIVDLARYVQELKQERKSNFHDGRKAQQHIETCWKQLESSKRRFERDCKEADRAQQYFEKMDADINVTKADVEKARQQAQIRHQMAEDSKADYSSILQKFNHEQHEYYHTHIPNIFQKIQEMEERRIVRMGESMKTYAEVDRQVIPIIGKCLDGIVKAAESIDQKNDSQLVIEAYKSGFEPPGDIEFEDYTQPMKRTVSDNSLSNSRGEGKPDLKFGGKSKGKLWPFIKKNKLMSLLTSPHQPPPPPPASASPSAVPNGPQSPKQQKEPLSHRFNEFMTSKPKIHCFRSLKRGLSLKLGATPEDFSNLPPEQRRKKLQQKVDELNKEIQKEMDQRDAITKMKDVYLKNPQMGDPASLDHKLAEVSQNIEKLRVETQKFEAWLAEVEGRLPARSEQARRQSGLYDSQNPPTVNNCAQDRESPDGSYTEEQSQESEMKVLATDFDDEFDDEEPLPAIGTCKALYTFEGQNEGTISVVEGETLYVIEEDKGDGWTRIRRNEDEEGYVPTSYVEVCLDKNAKDS
B6: ADD3 (adducin gamma) (protein, UniProt Q9UEY8 1-706)
chain: MSSDASQGVITTPPPPSMPHKERYFDRINENDPEYIRERNMSPDLRQDFNMMEQRKRVTQILQSPAFREDLECLIQEQMKKGHNPTGLLALQQIADYIMANSFSGFSSPPLSLGMVTPINDLPGADTSSYVKGEKLTRCKLASLYRLVDLFGWAHLANTYISVRISKEQDHIIIIPRGLSFSEATASNLVKVNIIGEVVDQGSTNLKIDHTGFSPHAAIYSTRPDVKCVIHIHTLATAAVSSMKCGILPISQESLLLGDVAYYDYQGSLEEQEERIQLQKVLGPSCKVLVLRNHGVVALGETLEEAFHYIFNVQLACEIQVQALAGAGGVDNLHVLDFQKYKAFTYTVAASGGGGVNMGSHQKWKVGEIEFEGLMRTLDNLGYRTGYAYRHPLIREKPRHKSDVEIPATVTAFSFEDDTVPLSPLKYMAQRQQREKTRWLNSPNTYMKVNVPEESRNGETSPRTKITWMKAEDSSKVSGGTPIKIEDPNQFVPLNTNPNEVLEKRNKIREQNRYDLKTAGPQSQLLAGIVVDKPPSTMQFEDDDHGPPAPPNPFSHLTEGELEEYKRTIERKQQGLEDAEQELLSDDASSVSQIQSQTQSPQNVPEKLEENHELFSKSFISMEVPVMVVNGKDDMHDVEDELAKRVSRLSTSTTIENIEITIKSPEKIEEVLSPEGSPSKSPSKKKKKFRTPSFLKKNKKKEKVEA

What was measured:
Experiment in all cases: proximity labelling; BioID in U937 cells stably expressing BirA*–MYO1F tail, PHmut or ΔSH3; 50 µM biotin for 24 h; RIPA lysis; streptavidin beads; mass spectrometry, LFQ against BirA*-only control, threshold 4-fold or greater enrichment
BirA*–MYO1F tail (human) [1] = target: T1, BirA*–MYO1F tail (human)
BirA*–MYO1F tail (human) [2] = target: T1, BirA*–MYO1F tail (human); remark: listed apart in the source
[3] = target: T2, BirA*–MYO1F tail PHmut (human)

Molecule	binding (BirA*–MYO1F tail (human) [1])	binding (BirA*–MYO1F tail (human) [2])	binding [3]
Wiskott–Aldrich syndrome protein (WAS) (from UniProt P42768 1-502)	binds	–	–
FYN-binding protein (FYB) (from UniProt O15117 1-783)	binds	–	–
B1	–	binds	binds
B2	–	binds	–
B3	–	binds	–
B4	–	binds	–
B5	–	binds	–
B6	–	binds	–

Reference: PMC12772958
